Test results reported in US10759803B2, “Asparagine endopeptidase (AEP) inhibitors for managing cancer and compositions related thereto” (Emory University, priority 2014, dated 2020).
Some entries share one result that the patent states for a list of compounds. For at least one compound, name, drawing or mass did not settle the structure.

Protein sequences, listed by entry. Tags and fused reporters are not part of them. Residues count along the entry.
UniProt P25774, 115-331, species assumed: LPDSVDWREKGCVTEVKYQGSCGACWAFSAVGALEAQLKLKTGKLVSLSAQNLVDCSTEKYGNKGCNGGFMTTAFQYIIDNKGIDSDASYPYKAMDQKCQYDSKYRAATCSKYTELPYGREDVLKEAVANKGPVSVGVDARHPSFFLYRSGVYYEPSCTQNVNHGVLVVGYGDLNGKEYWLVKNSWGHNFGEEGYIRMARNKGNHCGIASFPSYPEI
UniProt Q14790, 385-479 limits assumed, species assumed: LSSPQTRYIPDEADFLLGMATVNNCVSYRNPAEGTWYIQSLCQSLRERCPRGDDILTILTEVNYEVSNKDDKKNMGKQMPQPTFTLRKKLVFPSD
UniProt Q14790, 217-374 limits assumed, species assumed: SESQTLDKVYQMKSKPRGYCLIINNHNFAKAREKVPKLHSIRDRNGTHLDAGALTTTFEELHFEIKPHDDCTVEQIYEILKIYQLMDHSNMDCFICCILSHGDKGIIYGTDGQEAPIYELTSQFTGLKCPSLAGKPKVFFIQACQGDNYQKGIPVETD

Assays:
[1] = molecular target: Cathepsin-S (Homo sapiens, UniProt P25774); assay: Specificity assay against Cathepsin-S; type: biochemical
Description: (§1) Purified recombinant enzyme was incubated with various concentrations of inhibitor in appropriate assay buffers in the presence of increasing concentrations of inhibitor. The formation of fluorescent product was monitored in duplicate reactions and the data was fit to appropriate equations to calculate the IC50 values.
(§2) To identify small-molecule inhibitors of AEP, a high-throughput screen was designed in conjunction with the Emory Chemical Biology Discovery Center. The screen incorporated mouse kidney lysates to assay a 54,384 compound library. […] Additional structural analysis and grouping allowed the compounds to be sorted into 8 distinct backbone families. […] The specificity of the compounds was also determined using four major cysteine proteases (FIG. 2).

[2] = molecular target: Caspase-8 (Homo sapiens, UniProt Q14790); assay: Specificity assay against Caspase-8; type: biochemical
Description: as §1, §2

| Structure (SMILES) | IC50 [1] [µM] | selectivity for AEP over Caspase-8 [2] |
| --- | --- | --- |
| CCn1c(=O)c2c(nc(S)n2C)n(C)c1=O [Compound 38D-21] | > 200 | – |
| Cn1c(=O)[nH]c(=O)c2c1nc(S)n2CC(O)COc1ccc(Cl)cc1 (centres unmarked) [Compound 38] | – | at least 80 fold |
